# Data: the supplement of paper PMC10849652
# The chains behind the UniProt entries cited, without tags or fusion partners. Where a name states a change or a piece, a line headed by the entry shows the natural chain unless it says otherwise.
# UniProt P08237: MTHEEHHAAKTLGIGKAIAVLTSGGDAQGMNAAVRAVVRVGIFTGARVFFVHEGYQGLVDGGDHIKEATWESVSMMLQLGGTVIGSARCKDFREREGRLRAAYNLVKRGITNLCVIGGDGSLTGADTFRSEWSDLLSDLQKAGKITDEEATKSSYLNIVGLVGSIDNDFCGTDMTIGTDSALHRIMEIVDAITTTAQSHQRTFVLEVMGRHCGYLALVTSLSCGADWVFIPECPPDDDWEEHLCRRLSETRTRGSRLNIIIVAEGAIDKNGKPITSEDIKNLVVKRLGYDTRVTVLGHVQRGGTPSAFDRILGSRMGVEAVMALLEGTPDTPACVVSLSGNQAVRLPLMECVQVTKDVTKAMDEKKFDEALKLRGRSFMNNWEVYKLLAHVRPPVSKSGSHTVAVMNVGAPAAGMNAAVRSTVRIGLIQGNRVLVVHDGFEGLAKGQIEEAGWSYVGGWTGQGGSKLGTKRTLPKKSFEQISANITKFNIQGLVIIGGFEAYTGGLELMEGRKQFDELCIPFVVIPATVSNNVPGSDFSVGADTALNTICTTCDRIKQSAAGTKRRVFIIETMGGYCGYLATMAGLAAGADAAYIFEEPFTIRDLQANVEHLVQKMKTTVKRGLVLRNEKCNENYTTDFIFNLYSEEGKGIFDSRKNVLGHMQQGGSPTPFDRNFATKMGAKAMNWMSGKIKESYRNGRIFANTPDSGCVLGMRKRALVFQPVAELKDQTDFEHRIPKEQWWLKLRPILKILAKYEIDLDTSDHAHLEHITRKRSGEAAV
# UniProt O14737: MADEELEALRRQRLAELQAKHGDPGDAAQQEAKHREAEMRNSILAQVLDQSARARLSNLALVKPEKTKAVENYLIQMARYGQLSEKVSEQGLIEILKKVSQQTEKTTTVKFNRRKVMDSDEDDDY
# UniProt Q32M88: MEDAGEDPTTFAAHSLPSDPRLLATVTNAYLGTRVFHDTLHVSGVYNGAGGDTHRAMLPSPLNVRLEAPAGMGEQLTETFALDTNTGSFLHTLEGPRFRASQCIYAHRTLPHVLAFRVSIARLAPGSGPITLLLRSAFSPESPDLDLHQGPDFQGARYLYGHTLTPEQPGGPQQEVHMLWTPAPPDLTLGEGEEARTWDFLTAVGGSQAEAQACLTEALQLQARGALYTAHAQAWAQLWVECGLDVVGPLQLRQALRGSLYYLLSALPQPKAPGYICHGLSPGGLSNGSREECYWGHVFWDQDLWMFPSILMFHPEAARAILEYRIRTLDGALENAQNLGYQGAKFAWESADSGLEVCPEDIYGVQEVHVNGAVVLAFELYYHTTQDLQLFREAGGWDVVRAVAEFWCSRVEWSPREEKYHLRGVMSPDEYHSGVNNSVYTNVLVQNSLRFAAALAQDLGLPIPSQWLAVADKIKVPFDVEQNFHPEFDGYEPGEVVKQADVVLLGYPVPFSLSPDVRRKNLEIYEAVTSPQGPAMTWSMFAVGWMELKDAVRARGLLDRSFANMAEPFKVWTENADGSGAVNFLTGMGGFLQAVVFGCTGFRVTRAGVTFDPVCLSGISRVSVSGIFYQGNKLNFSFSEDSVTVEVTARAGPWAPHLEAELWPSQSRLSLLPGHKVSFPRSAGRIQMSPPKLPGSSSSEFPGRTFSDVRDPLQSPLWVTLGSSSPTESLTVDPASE
# UniProt Q15118, whole entry, looked up: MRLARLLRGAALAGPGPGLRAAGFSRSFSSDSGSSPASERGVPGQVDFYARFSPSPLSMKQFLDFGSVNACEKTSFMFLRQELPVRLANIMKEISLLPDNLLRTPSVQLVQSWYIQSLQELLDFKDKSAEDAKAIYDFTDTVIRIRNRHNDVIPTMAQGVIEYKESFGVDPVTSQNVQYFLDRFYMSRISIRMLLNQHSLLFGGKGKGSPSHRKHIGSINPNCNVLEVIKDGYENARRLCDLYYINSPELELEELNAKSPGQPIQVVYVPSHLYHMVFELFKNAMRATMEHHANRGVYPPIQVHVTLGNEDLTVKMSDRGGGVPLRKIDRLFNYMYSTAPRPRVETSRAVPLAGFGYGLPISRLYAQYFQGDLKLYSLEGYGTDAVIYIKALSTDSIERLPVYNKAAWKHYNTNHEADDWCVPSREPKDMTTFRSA
# UniProt Q9NQP4, whole entry, looked up: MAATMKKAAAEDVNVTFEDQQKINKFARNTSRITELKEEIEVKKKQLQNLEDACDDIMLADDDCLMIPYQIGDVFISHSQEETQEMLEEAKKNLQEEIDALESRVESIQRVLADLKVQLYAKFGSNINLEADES
# UniProt O00330, whole entry, looked up: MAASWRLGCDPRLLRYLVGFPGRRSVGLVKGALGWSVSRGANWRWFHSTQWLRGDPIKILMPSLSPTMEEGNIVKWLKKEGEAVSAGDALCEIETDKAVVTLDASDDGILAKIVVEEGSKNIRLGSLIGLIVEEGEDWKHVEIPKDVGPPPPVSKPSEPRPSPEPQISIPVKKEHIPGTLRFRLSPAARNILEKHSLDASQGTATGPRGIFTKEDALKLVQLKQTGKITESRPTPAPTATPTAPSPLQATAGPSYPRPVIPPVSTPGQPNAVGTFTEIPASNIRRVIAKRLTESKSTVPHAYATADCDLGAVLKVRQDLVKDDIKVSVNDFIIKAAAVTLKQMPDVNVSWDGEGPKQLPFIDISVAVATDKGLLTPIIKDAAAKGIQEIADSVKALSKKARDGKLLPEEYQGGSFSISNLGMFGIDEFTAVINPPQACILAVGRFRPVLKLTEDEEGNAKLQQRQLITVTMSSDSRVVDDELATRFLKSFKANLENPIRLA
# UniProt O00151: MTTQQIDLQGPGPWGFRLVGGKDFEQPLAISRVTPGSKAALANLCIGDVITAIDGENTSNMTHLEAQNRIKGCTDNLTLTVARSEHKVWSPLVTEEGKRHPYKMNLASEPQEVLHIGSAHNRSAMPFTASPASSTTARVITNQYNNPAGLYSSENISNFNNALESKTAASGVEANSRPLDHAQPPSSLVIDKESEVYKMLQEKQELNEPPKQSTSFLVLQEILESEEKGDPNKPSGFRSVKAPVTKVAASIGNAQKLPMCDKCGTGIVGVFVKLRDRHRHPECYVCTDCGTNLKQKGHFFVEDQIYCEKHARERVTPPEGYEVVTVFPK
# UniProt Q96HS1, whole entry, looked up: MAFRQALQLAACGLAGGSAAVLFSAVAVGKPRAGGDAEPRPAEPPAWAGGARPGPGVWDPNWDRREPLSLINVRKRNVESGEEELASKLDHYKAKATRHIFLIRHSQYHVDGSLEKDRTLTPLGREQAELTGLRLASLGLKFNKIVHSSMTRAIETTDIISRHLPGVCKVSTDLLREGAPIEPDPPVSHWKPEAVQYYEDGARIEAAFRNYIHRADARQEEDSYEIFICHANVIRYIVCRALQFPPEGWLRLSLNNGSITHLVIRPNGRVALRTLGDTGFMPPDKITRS
# UniProt Q99471, whole entry, looked up: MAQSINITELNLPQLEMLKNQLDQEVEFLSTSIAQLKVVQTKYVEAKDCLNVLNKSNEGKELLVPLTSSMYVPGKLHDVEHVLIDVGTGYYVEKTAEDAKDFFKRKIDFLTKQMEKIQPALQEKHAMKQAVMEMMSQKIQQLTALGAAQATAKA
# UniProt O96011: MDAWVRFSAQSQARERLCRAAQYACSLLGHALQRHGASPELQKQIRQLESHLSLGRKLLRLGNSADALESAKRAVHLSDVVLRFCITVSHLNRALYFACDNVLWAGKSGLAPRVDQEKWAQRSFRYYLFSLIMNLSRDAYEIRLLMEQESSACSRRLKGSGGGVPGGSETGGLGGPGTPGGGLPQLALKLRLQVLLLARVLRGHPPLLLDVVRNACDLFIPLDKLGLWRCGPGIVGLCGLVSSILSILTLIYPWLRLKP
# UniProt Q5VU43: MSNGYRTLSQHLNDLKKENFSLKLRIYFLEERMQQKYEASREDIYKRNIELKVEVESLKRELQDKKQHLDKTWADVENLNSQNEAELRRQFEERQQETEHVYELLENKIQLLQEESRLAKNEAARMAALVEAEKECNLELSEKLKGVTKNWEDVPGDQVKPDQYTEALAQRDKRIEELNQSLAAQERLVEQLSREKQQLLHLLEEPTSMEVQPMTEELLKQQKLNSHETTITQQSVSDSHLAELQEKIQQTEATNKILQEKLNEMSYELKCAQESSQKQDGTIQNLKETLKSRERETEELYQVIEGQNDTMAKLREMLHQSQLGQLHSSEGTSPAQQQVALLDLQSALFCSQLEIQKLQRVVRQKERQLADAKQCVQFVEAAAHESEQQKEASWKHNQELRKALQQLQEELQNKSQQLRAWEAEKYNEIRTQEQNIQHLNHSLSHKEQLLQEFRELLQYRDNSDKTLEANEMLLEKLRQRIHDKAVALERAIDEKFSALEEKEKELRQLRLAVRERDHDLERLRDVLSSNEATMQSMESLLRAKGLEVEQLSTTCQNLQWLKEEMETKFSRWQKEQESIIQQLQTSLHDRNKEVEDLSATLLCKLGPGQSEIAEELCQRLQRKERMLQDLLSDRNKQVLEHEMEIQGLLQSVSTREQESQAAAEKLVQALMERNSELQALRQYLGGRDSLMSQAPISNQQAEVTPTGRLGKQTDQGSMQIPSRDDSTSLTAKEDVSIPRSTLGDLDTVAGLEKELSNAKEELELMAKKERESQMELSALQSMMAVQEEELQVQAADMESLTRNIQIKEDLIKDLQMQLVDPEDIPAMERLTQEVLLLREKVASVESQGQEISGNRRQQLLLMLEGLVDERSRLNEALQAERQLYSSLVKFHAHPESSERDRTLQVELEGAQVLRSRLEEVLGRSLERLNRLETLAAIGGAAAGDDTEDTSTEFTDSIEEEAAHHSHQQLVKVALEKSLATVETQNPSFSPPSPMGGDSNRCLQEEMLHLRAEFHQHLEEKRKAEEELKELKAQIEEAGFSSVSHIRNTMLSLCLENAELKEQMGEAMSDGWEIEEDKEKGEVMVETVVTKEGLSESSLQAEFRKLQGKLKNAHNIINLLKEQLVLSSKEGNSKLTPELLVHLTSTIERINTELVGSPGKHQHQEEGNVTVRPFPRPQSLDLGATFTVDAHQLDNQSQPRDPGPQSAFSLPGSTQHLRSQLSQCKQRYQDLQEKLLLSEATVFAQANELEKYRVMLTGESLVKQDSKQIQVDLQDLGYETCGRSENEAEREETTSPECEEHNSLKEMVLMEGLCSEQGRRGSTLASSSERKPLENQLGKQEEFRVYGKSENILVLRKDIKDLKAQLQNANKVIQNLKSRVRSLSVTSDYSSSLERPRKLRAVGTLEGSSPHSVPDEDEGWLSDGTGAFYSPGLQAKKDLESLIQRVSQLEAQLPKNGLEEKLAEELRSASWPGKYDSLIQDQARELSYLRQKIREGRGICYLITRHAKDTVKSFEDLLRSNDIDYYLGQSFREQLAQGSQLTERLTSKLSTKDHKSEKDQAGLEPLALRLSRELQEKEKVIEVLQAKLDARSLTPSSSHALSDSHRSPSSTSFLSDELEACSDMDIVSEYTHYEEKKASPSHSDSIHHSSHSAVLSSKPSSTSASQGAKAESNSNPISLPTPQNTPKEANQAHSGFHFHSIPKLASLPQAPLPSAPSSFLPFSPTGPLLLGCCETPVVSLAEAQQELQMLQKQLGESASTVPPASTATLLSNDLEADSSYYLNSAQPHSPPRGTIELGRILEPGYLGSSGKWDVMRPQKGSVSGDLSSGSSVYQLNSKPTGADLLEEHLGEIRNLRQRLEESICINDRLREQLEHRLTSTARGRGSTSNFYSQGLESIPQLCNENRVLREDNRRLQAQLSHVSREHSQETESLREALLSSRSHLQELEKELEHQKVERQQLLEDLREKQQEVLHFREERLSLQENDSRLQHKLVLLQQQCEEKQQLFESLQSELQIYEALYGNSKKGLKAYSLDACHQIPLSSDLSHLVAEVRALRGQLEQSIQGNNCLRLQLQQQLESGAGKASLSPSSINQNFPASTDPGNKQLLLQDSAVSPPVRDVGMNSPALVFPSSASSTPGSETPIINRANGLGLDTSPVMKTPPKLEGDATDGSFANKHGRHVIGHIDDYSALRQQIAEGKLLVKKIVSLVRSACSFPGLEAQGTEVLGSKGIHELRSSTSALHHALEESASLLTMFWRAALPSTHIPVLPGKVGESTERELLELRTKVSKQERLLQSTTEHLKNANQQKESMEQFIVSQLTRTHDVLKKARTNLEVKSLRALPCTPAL
# UniProt P30086: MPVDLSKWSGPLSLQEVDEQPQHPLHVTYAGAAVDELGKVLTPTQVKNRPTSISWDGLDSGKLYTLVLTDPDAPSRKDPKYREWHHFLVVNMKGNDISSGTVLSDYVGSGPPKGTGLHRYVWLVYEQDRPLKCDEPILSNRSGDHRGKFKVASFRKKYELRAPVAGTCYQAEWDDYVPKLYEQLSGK
# UniProt P12004, whole entry, looked up: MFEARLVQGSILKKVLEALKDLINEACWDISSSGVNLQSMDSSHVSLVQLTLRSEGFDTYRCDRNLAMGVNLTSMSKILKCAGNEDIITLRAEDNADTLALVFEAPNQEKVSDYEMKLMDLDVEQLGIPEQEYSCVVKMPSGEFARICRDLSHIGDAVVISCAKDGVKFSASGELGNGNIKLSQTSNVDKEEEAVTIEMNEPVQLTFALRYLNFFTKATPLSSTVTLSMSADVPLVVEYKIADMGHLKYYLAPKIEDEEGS
# Some of the results follow.
# What was measured:
# Assay in all cases: log2 fold change, soluble protein after heating vs DMSO (PISA); higher = thermal stabilisation; K562 lysate, 10 uM; active = over 0.2 and 3.5 SD of the protein, either way, in both replicates (recomputed)
# [1] = compound: CCCS(=O)(=O)Nc1ccc(F)c(C(=O)c2c[nH]c3ncc(-c4ccc(Cl)cc4)cc23)c1F [vemurafenib]
# How it was run: (§1)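 K562 pellets were dounce-homogenised in PBS pH 7.4 with 1 mM MgCl2, and the crude extract at 1 mg/mL protein was treated with 10 μM compound for 30 min. Aliquots were heated for 3 min across 48°C-58°C, pooled, and brought to 0.5% NP-40 at 4°C; soluble protein was the supernatant after 21,000xg for 90 min. Soluble protein was quantified by TMTpro 16plex LC-MS/MS with channel sums equalised, and reported as log2 fold change in thermal stability against DMSO controls, with values from duplicates.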
# [2] = compound: CCCS(=O)(=O)Nc1ccc(F)c(C(=O)c2c[nH]c3ncc(Cl)cc23)c1F
# How it was run: as §1
# [3] = compound: CCN(CCCOc1ccc2c(Nc3cc(CC(=O)Nc4cccc(F)c4)[nH]n3)ncnc2c1)CCOP(=O)(O)O [barasertib]
# How it was run: as §1
# [4] = compound: CC[C@@H]1C(=O)N(C)c2cnc(Nc3ccc(C(=O)NC4CCN(C)CC4)cc3OC)nc2N1C1CCCC1
# How it was run: as §1
# [5] = compound: CC[C@@H]1C(=O)N(C)c2cnc(Nc3ccc(C(=O)N[C@H]4CC[C@H](N5CCN(CC6CC6)CC5)CC4)cc3OC)nc2N1C(C)C [volasertib]
# How it was run: as §1
# [6] = compound: CCn1c(C(=O)N(C2CC2)C2CC2)cc2c3c(ncn3C)c(Nc3cc(C)n(C)n3)nc21
# How it was run: as §1
# [7] = compound: CCn1cc(-c2ccnc3[nH]c(-c4cccc(CN(C)C)c4)cc23)c(-c2ccc(NC(=O)N(C)C)cc2)n1
# How it was run: as §1
# [8] = compound: CN1CCC(CNc2ccc3ncc(-c4cccc(OC(F)(F)F)c4)n3n2)CC1
# How it was run: as §1
# [9] = compound: CN1CCN(CCOc2cc(OC3CCOCC3)c3c(Nc4c(Cl)ccc5c4OCO5)ncnc3c2)CC1 [saracatinib]
# How it was run: as §1
# [10] = compound: CN1CCN(c2nc(C3=C(c4c[nH]c5ccccc45)C(=O)NC3=O)c3ccccc3n2)CC1 [sotrastaurin]
# How it was run: as §1
Target,log2 fold change [1],log2 fold change [2],log2 fold change [3],log2 fold change [4],log2 fold change [5],log2 fold change [6],log2 fold change [7],log2 fold change [8],log2 fold change [9],log2 fold change [10]
PFKFB1 (UniProt P16118),inactive: -0.105,inactive: 0.143,inactive: -0.032,inactive: 0.1,inactive: 0.038,inactive: -0.074,inactive: -0.021,inactive: 0.01,inactive: 0.003,
PFKM isoform 3 (UniProt P08237),inactive: -0.044,inactive: -0.061,inactive: -0.005,inactive: 0.007,inactive: 0.007,inactive: 0.011,inactive: -0.041,inactive: 0.029,inactive: 0.014,inactive: 0.026
PEA15 isoform 2 (UniProt Q15121),inactive: -0.011,inactive: -0.014,inactive: 0.077,inactive: 0.016,inactive: 0.019,inactive: -0.001,inactive: -0.065,inactive: -0.044,inactive: -0.025,inactive: -0.026
PAXBP1 (UniProt Q9Y5B6),inactive: 0.072,inactive: 0.006,inactive: 0.07,inactive: -0.008,inactive: -0.058,inactive: 0.042,inactive: 0.043,inactive: 0.004,inactive: 0.02,inactive: 0.025
PDIA5 (UniProt Q14554),inactive: 0.018,inactive: 0.013,inactive: -0.006,inactive: 0.012,inactive: 0.014,inactive: -0.017,inactive: -0.07,inactive: -0.01,inactive: -0.002,inactive: 0.022
PDIA6 isoform 2 (UniProt Q15084),inactive: -0.005,inactive: -0.028,inactive: -0.03,inactive: 0.033,inactive: 0.005,inactive: -0.005,inactive: 0.047,inactive: -0.028,inactive: -0.019,inactive: -0.005
PDCD5 (UniProt O14737),inactive: -0.01,inactive: -0.012,inactive: 0.044,inactive: 0.034,inactive: 0.052,inactive: 0,inactive: -0.189,inactive: 0.099,inactive: -0.044,inactive: 0.014
PGGHG (UniProt Q32M88),inactive: 0.04,inactive: 0.008,inactive: 0.008,inactive: 0.083,inactive: 0.013,inactive: 0.034,inactive: -0.013,inactive: 0.044,inactive: -0.019,inactive: -0.049
PDS5B (UniProt Q9NTI5),inactive: 0.04,inactive: 0.03,inactive: 0.05,inactive: -0.049,inactive: -0.026,inactive: 0.034,inactive: -0.057,inactive: -0.026,inactive: 0.019,inactive: 0.019
PEX7 (UniProt O00628),inactive: 0.059,inactive: 0.078,inactive: 0.054,inactive: 0.038,inactive: -0.008,inactive: 0.026,inactive: -0.173,inactive: 0.091,inactive: -0.046,
PEX16 isoform 2 (UniProt Q9Y5Y5),inactive: -0.085,inactive: 0.059,inactive: -0.006,inactive: -0.039,inactive: 0.038,inactive: -0.017,inactive: -0.125,inactive: -0.383,inactive: 0.086,inactive: 0.014
PDK1 (UniProt Q15118),inactive: -0.251,inactive: 0.118,inactive: -0.083,inactive: -0.227,inactive: -0.047,inactive: 0.061,inactive: -0.18,inactive: -0.028,inactive: 0.001,inactive: -0.024
PBXIP1 (UniProt Q96AQ6),inactive: 0.031,inactive: 0.037,inactive: 0.004,inactive: 0.072,inactive: -0.019,inactive: 0.002,inactive: 0.065,inactive: 0.008,inactive: 0.072,inactive: -0.022
PFDN4 (UniProt Q9NQP4),inactive: 0.008,inactive: 0.031,inactive: -0.013,inactive: 0.012,inactive: 0.008,inactive: -0.018,inactive: 0.063,inactive: 0.028,inactive: -0.22,inactive: 0.059
PEX19 (UniProt P40855),inactive: 0.014,inactive: 0.024,inactive: 0.257,inactive: 0.04,inactive: 0.045,inactive: -0.049,inactive: -0.014,inactive: 0.016,inactive: 0.007,inactive: -0.025
PDF (UniProt Q9HBH1),inactive: -0.012,inactive: 0.03,inactive: 0.028,inactive: -0.118,inactive: -0.004,inactive: 0.01,inactive: -0.014,inactive: -0.181,inactive: 0.032,inactive: -0.02
PDHX (UniProt O00330),inactive: 0.003,inactive: 0.015,inactive: 0.013,inactive: -0.02,inactive: 0.029,inactive: 0.015,inactive: 0.038,inactive: -0.057,inactive: -0.001,inactive: -0.018
PDLIM1 (UniProt O00151),inactive: 0.014,inactive: 0.004,inactive: -0.04,inactive: 0.085,inactive: 0.035,inactive: -0.042,inactive: 0.057,inactive: -0.017,inactive: -0.009,inactive: -0.015
PCBP2 isoform 8 (UniProt Q15366),inactive: 0.078,inactive: 0.051,inactive: 0.016,inactive: 0.001,inactive: -0.05,inactive: -0.152,inactive: 0.054,inactive: -0.003,inactive: -0.018,inactive: -0.045
PELO (UniProt Q9BRX2),inactive: 0,inactive: 0.021,inactive: 0.037,inactive: -0.115,inactive: -0.066,inactive: -0.014,active: 0.404,inactive: -0.183,inactive: -0.001,inactive: -0.018
PDE12 (UniProt Q6L8Q7),inactive: -0.008,inactive: 0.013,inactive: -0.015,inactive: -0.016,inactive: -0.027,inactive: -0.022,inactive: 0.028,inactive: -0.017,inactive: -0.026,inactive: -0.02
PARP16 isoform 3 (UniProt Q8N5Y8),inactive: 0.087,inactive: 0.004,inactive: 0.026,inactive: 0.063,inactive: 0.012,inactive: -0.113,inactive: -0.091,inactive: 0.027,inactive: 0.021,inactive: 0.007
PGAM5 (UniProt Q96HS1),inactive: 0.004,inactive: -0.006,inactive: 0.015,inactive: 0.015,inactive: -0.034,inactive: -0.009,inactive: -0.101,inactive: 0.036,inactive: 0.005,inactive: -0.002
PFDN5 (UniProt Q99471),inactive: 0.026,inactive: -0.053,inactive: 0.07,inactive: 0.033,inactive: 0.063,inactive: 0.062,inactive: 0.041,inactive: -0.12,inactive: 0.002,inactive: -0.066
PCYT1B (UniProt Q9Y5K3),inactive: 0.013,inactive: 0.011,inactive: 0.012,inactive: 0.046,inactive: 0.017,inactive: 0.008,inactive: -0.094,inactive: 0.063,inactive: 0.012,inactive: -0.002
PEX11B (UniProt O96011),inactive: -0.012,inactive: 0.004,inactive: -0.028,inactive: 0.041,inactive: -0.014,inactive: -0.015,inactive: 0.169,inactive: -0.014,inactive: 0.009,inactive: -0.013
PDE4DIP isoform 4 (UniProt Q5VU43),inactive: 0.027,inactive: 0.011,inactive: 0.092,inactive: 0.046,inactive: 0.025,inactive: 0.04,inactive: -0.04,inactive: -0.005,inactive: 0.034,inactive: -0.014
PCM1 (UniProt Q15154),inactive: 0.006,inactive: -0.008,inactive: 0.01,inactive: -0.011,inactive: -0.026,inactive: -0.015,inactive: -0.039,inactive: -0.001,inactive: 0.036,inactive: 0.014
PEBP1 (UniProt P30086),inactive: -0.024,inactive: 0.002,inactive: 0.026,inactive: 0.023,inactive: 0.035,inactive: 0.005,inactive: -0.073,inactive: 0.011,inactive: -0.031,inactive: -0.024
PCNA (UniProt P12004),inactive: 0.003,inactive: -0.023,inactive: -0.049,inactive: -0.033,inactive: 0.025,inactive: 0.003,inactive: -0.111,inactive: 0.092,inactive: -0.009,inactive: -0.013

# Some of the entries so far, tab-delimited.
Target	log2 fold change [1]	log2 fold change [2]	log2 fold change [3]	log2 fold change [4]	log2 fold change [5]	log2 fold change [6]	log2 fold change [7]	log2 fold change [8]	log2 fold change [9]	log2 fold change [10]
PGAM5 (UniProt Q96HS1)	inactive: 0.004	inactive: -0.006	inactive: 0.015	inactive: 0.015	inactive: -0.034	inactive: -0.009	inactive: -0.101	inactive: 0.036	inactive: 0.005	inactive: -0.002
PFDN5 (UniProt Q99471)	inactive: 0.026	inactive: -0.053	inactive: 0.07	inactive: 0.033	inactive: 0.063	inactive: 0.062	inactive: 0.041	inactive: -0.12	inactive: 0.002	inactive: -0.066
